Reference: PubChem BioAssay AID248 (DTP/NCI, 2004)
The list does not hold the whole screen: it is rich in T/C values a quarter to a half above the control, in often repeated tests (any T/C) and in doses without a T/C. Further doses and runs are listed elsewhere. T/C: endpoint of the treated group in % of that of the vehicle group. Some entries give survivors of the animals treated and no T/C: the source files T/C as zero there, which appears to mark a toxic dose or a test without result, not a measured value. Some doses without a T/C left all or most animals alive at the check, yet need not have been tolerated: survival well below the control is almost never listed, so the zero probably covers shortened survival too. Survivors were counted at the toxicity check, usually on the fifth day, unless a day is given; later deaths do not show. Schedules are NCI's codes, taken here to give the interval after Q, in days (D) or hours (H), and the number of doses after X.

Tested on: L1210 leukemia ip in BDF1 mice, survival T/C
Assay: NCI In Vivo Anticancer Drug Screen. Data for tumor model L1210 Leukemia (intraperitoneal) in B6D2F1 (BDF1) mice
Settings: T/C endpoint: mean survival time, higher T/C = longer survival
[1] = dose: 100.0 mg/kg/injection, schedule: Q04DX003 (ip), vehicle: saline
[2] = dose: 200.0 mg/kg/injection, schedule: Q04DX003 (ip), vehicle: saline
[3] = dose: 400.0 mg/kg/injection, schedule: Q04DX003 (ip), vehicle: saline
[4] = dose: 400.0 mg/kg/injection, schedule: Q04DX003 (ip), vehicle: Klucel (hydroxypropylcellulose) (HPC)
[5] = dose: 400.0 mg/kg/injection, schedule: Q01DX009 (ip), vehicle: saline
[6] = dose: 400.0 mg/kg/injection, schedule: Q04DX002 (ip), vehicle: Klucel (hydroxypropylcellulose) (HPC)
[7] = dose: 400.0 mg/kg/injection, schedule: Q04DX003 (ip), vehicle: saline with Tween-80
[8] = dose: 75.0 mg/kg/injection, schedule: Q01DX001 (ip), vehicle: other
[9] = dose: 150.0 mg/kg/injection, schedule: Q01DX001 (ip), vehicle: other
[10] = dose: 300.0 mg/kg/injection, schedule: Q01DX001 (ip), vehicle: other
[11] = dose: 400.0 mg/kg/injection, schedule: Q01DX001 (ip), vehicle: other

SMILES: COc1cccc(C)c1-n1c(C)cc(C(=O)O)c1C
- survivor count [1]: 6 of 6
- survivor count [2]: 6 of 6
- survivor count [3]: 6 of 6

SMILES: COc1cc(C(=O)N2CCCCCCC2)cc(OC)c1OC
- survivor count [4]: 0 of 3

SMILES: CN(C)CCOC(c1ccccc1)c1ccccc1
- survivor count (dose: 100.0 mg/kg/injection, schedule: Q01DX009 (ip), vehicle: saline): 2 of 6
- survivor count [1]: 4 of 4
- survivor count (dose: 200.0 mg/kg/injection, schedule: Q01DX009 (ip), vehicle: saline): 0 of 6
- survivor count [2]: 2 of 4
- survivor count [5]: 0 of 6
- survivor count [3]: 0 of 4

SMILES: FC(F)(Cl)c1nc2nc(Cl)c(Cl)nc2[nH]1
- survivor count (dose: 200.0 mg/kg/injection, schedule: Q01DX009 (ip), vehicle: other): 1 of 6

SMILES: COc1c2c(cc3c1N(C)C(=O)CC3C)C(C)CC(=O)N2 (stereo not given)
- survivor count (dose: 150.0 mg/kg/injection, schedule: Q04DX003 (ip), vehicle: Klucel (hydroxypropylcellulose) (HPC)): 3 of 6
- survivor count (dose: 300.0 mg/kg/injection, schedule: Q04DX003 (ip), vehicle: Klucel (hydroxypropylcellulose) (HPC)): 0 of 6

SMILES: Oc1ccc(O)c2[nH]c(-c3ccc(Cl)cc3)cc12
- survivor count (dose: 100.0 mg/kg/injection, schedule: Q04DX002 (ip), vehicle: Klucel (hydroxypropylcellulose) (HPC)): 0 of 3
- survivor count (dose: 200.0 mg/kg/injection, schedule: Q04DX002 (ip), vehicle: Klucel (hydroxypropylcellulose) (HPC)): 0 of 3
- survivor count [6]: 0 of 3

SMILES: Cc1ccc(CN(C)N=Nc2ccccc2)cc1
- survivor count [6]: 1 of 3

SMILES: O=C(Nc1ccc(Cl)c(Cl)c1)OCn1ncc2ccc([N+](=O)[O-])cc21
- survivor count (dose: 100.0 mg/kg/injection, schedule: Q01DX001 (ip), vehicle: saline): 4 of 4

SMILES: C=C(C(=O)c1ccccc1)C(O)c1ccccc1 (stereo not given)
- survivor count (dose: 400.0 mg/kg/injection, schedule: Q01DX009 (ip), vehicle: saline with Tween-80): 3 of 6

SMILES: CC(C)(C)c1ccc(O)c(C(C)(C)C)c1
- survivor count [7]: 3 of 6

SMILES: NS(=O)(=O)c1ccc(N=Nc2ncc(CCNC3=CC(=O)C(=O)c4ccccc43)[nH]2)cc1
- survivor count (dose: 100.0 mg/kg/injection, schedule: Q01DX009 (ip), vehicle: Klucel (hydroxypropylcellulose) (HPC)): 3 of 3
- survivor count (dose: 200.0 mg/kg/injection, schedule: Q01DX009 (ip), vehicle: Klucel (hydroxypropylcellulose) (HPC)): 3 of 3

SMILES: NC(=O)c1ncc(-c2ccccc2)[nH]c1=O
- survivor count [5]: 3 of 6

SMILES: [Cl][Hg][Cl].c1ccc(N=P(c2ccccc2)(c2ccccc2)c2ccccc2)cc1
- survivor count (dose: 37.5 mg/kg/injection, schedule: Q01DX001 (ip), vehicle: other): 3 of 6
- survivor count [8]: 0 of 6
- survivor count [9]: 0 of 6
- survivor count [10]: 0 of 6

SMILES: Nc1ccc2ncccc2c1[N+](=O)[O-]
- survivor count [11]: 0 of 6

SMILES: COC(=O)C(C)CN1CCCCC1 (stereo not given)
- survivor count [3]: 0 of 6

SMILES: c1ccc(CNCc2ccccn2)nc1
- survivor count (dose: 200.0 mg/kg/injection, schedule: Q04DX002 (ip), vehicle: saline): 0 of 3
- survivor count (dose: 400.0 mg/kg/injection, schedule: Q04DX002 (ip), vehicle: saline): 0 of 3

SMILES: C=CC(C)(C)c1ccccc1O
- survivor count [7]: 5 of 6

SMILES: CC1(C)OC2C(CO)OC(n3cnc4c(N)ncnc43)C2O1 (stereo not given)
- survivor count [4]: 5 of 6

SMILES: CCC(C)C(C)NC(C)=O (stereo not given)
- survivor count [3]: 2 of 6

SMILES: Nc1nc(N)c2cc(CNc3ccc(C(=O)NC(CCC(=O)O)C(=O)O)cc3)cnc2n1 (stereo not given)
- survivor count (dose: 100.0 mg/kg/injection, schedule: Q01DX001 (ip), vehicle: other): 4 of 6
- survivor count (dose: 200.0 mg/kg/injection, schedule: Q01DX001 (ip), vehicle: other): 3 of 6
- survivor count [11]: 3 of 6

SMILES: c1ccc2c(c1)ccc1c2ccc2sc3ccccc3[n+]21
- survivor count [8]: 0 of 6
- survivor count [9]: 0 of 6
- survivor count [10]: 0 of 6
